The record followed here is article doi:10.1101/2020.09.06.285171.

Protein sequences, listed by entry. Tags and fused reporters are not part of them. Residues count along the entry.
UniProt P79114, residues 1-935: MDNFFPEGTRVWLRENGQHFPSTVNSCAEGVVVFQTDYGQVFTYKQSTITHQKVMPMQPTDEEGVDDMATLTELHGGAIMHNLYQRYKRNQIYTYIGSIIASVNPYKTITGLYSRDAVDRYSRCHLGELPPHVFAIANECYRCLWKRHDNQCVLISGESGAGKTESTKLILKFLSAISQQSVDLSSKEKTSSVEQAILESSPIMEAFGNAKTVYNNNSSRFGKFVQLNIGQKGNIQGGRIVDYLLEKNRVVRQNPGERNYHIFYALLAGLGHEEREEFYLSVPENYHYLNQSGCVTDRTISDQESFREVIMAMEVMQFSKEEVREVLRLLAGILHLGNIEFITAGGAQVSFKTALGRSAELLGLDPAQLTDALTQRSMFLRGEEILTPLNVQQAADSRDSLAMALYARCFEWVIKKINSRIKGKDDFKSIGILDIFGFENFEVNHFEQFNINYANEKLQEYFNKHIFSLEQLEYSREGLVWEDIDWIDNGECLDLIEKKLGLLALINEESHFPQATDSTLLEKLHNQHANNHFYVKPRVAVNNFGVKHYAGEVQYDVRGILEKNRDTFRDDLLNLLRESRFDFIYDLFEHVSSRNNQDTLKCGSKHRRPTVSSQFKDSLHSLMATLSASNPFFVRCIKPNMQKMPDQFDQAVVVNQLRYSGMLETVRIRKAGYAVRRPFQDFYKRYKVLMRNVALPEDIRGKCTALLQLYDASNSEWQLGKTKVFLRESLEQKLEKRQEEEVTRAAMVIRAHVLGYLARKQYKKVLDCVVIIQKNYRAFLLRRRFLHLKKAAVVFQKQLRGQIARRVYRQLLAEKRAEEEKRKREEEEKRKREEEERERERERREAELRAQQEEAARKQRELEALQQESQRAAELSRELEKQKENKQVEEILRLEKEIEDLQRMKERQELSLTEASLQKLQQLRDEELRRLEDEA

Assay [1] concerns the target EGFP-MYO10MD (Bos taurus (Bt)) (UniProt P79114). The experiment in a line: in-cell filopodial tip enrichment assay with a chimeric myosin.
The target in assay [2] is mCherry-MYO10MD (Bos taurus (Bt)) (UniProt P79114). The description is as above.

No constants are given. Whether binding was seen depends on the method and setting. For part of these data: Tags and fused reporters may be left off the sequences shown.

B1: mCherry-USH1C (harmonin/Usher syndrome 1C) (protein, UniProt Q9Y6N9 1-552)
chain: MDRKVAREFRHKVDFLIENDAEKDYLYDVLRMYHQTMDVAVLVGDLKLVINEPSRLPLFDAIRPLIPLKHQVEYDQLTPRRSRKLKEVRLDRLHPEGLGLSVRGGLEFGCGLFISHLIKGGQADSVGLQVGDEIVRINGYSISSCTHEEVINLIRTKKTVSIKVRHIGLIPVKSSPDEPLTWQYVDQFVSESGGVRGSLGSPGNRENKEKKVFISLVGSRGLGCSISSGPIQKPGIFISHVKPGSLSAEVGLEIGDQIVEVNGVDFSNLDHKEAVNVLKSSRSLTISIVAAAGRELFMTDRERLAEARQRELQRQELLMQKRLAMESNKILQEQQEMERQRRKEIAQKAAEENERYRKEMEQIVEEEEKFKKQWEEDWGSKEQLLLPKTITAEVHPVPLRKPKYDQGVEPELEPADDLDGGTEEQGEQDFRKYEEGFDPYSMFTPEQIMGKDVRLLRIKKEGSLDLALEGGVDSPIGKVVVSAVYERGAAERHGGIVKGDEIMAINGKIVTDYTLAEAEAALQKAWNQGGDWIDLVVAVCPPKEYDDELTFF
For the molecule B1, in assay [1], the binding result is given as “no binding”.

B2: mCherry-ANKS4B (ankyrin repeat and sterile a motif domain containing 4B) (protein, UniProt Q8N8V4 1-417)
chain: MSTRYHQAASDSYLELLKEATKRDLNLSDEDGMTPTLLAAYHGNLEALEIICSRGGDPDRCDIWGNTPLHFAASNGHAHCVSFLVNFGANIFALDNDLQTPLDAAASREQNECVALLDKAATAQNIMNPKKVTRLKEQAQKNARRQIKECERLQEKHQNKMAHTYSKEESGTLSSSKGTFSRSSPSNASAPGTFGSLSKGIKDTFKIKFKKNKDTAEQVGKEGRSGQRNVMEVFREEEEDSFSGDFKEKLQLSAEEDGSVHHESILNRPGLGSIVFRRNRISSPEDISDSKREFGFKLPSELLQRQGASEADEGAADEEGEENGLKDDLPWDDDEVEWEEDVVDATPLEVFLLSQHLEEFLPIFKREQIDLEALLLCSDEDLQSIQMQLGPRKKVLNAINRRKQVLQQPGQLVDTSL
As to B2, in assay [1], the binding entry is on record as “no binding”.

B3: CDHR2-EGFP (protein, UniProt Q9BYE9 21-1310)
chain: NVAPKFLANMTSVILPEDLPVGAQAFWLVAEDQDNDPLTYGMSGPNAYFFAVTPKTGEVKLASALDYETLYTFKVTISVSDPYIQVQREMLVIVEDRNDNAPVFQNTAFSTSINETLPVGSVVFSVLAVDKDMGSAGMVVYSIEKVIPSTGDSEHLFRILANGSIVLNGSLSYNNKSAFYQLELKACDLGGMYHNTFTIQCSLPVFLSISVVDQPDLDPQFVREFYSASVAEDAAKGTSVLTVEAVDGDKGINDPVIYSISYSTRPGWFDIGADGVIRVNGSLDREQLLEADEEVQLQVTATETHLNIYGQEAKVSIWVTVRVMDVNDHKPEFYNCSLPACTFTPEEAQVNFTGYVDEHASPRIPIDDLTMVVYDPDKGSNGTFLLSLGGPDAEAFSVSPERAVGSASVQVLVRVSALVDYERQTAMAVQVVATDSVSQNFSVAMVTIHLRDINDHRPTFPQSLYVLTVPEHSATGSVVTDSIHATDPDTGAWGQITYSLLPGNGADLFQVDPVSGTVTVRNGELLDRESQAVYYLTLQATDGGNLSSSTTLQIHLLDINDNAPVVSGSYNIFVQEEEGNVSVTIQAHDNDEPGTNNSRLLFNLLPGPYSHNFSLDPDTGLLRNLGPLDREAIDPALEGRIVLTVLVSDCGEPVLGTKVNVTITVEDINDNLPIFNQSSYNFTVKEEDPGVLVGVVKAWDADQTEANNRISFSLSGSGANYFMIRGLVLGAGWAEGYLRLPPDVSLDYETQPVFNLTVSAENPDPQGGETIVDVCVNVKDVNDNPPTLDVASLRGIRVAENGSQHGQVAVVVASDVDTSAQLEIQLVNILCTKAGVDVGSLCWGWFSVAANGSVYINQSKAIDYEACDLVTLVVRACDLATDPGFQAYSNNGSLLITIEDVNDNAPYFLPENKTFVIIPELVLPNREVASVRARDDDSGNNGVILFSILRVDFISKDGATIPFQGVFSIFTSSEADVFAGSIQPVTSLDSTLQGTYQVTVQARDRPSLGPFLEATTTLNLFTVDQSYRSRLQFSTPKEEVGANRQAINAALTQATRTTVYIVDIQDIDSAARARPHSYLDAYFVFPNGSALTLDELSVMIRNDQDSLTQLLQLGLVVLGSQESQESDLSKQLISVIIGLGVALLLVLVIMTMAFVCVRKSYNRKLQAMKAAKEARKTAAGVMPSAPAIPGTNMYNTERANPMLNLPNKDLGLEYLSPSNDLDSVSVNSLDDNSVDVDKNSQEIKEHRPPHTPPEPDPEPLSVVLLGRQAGASGQLEGPSYTNAGLDTTDL
On to B3, for which the binding entry in assay [2] is listed as “no binding”.
